Data on two molecules can be found in PubChem BioAssay AID256 (DTP/NCI, 2004).

This test has as its system CD2F1 mice, L1210 leukemia ip, survival T/C. The test is described as follows: NCI In Vivo Anticancer Drug Screen. Data for tumor model L1210 Leukemia (intraperitoneal) in CD2F1 (CDF1) mice. The conditions noted are these: T/C endpoint: mean survival time, higher T/C = longer survival. The method, then:
The antitumor activity of compounds was measured in mice bearing transplantable tumors. Survival or tumor size were measured and the results are expressed as the measurement made in the treated group (T) divided by the measurement made in the vehicle treated control group (C). The tumor model used in this assay is L1210 Leukemia (intraperitoneal) in CD2F1 (CDF1) mice

Setting [1] is: dose: 6.25 mg/kg/injection, schedule: Q04DX003 (ip), vehicle: water.
Setting [2] is: dose: 12.5 mg/kg/injection, schedule: Q04DX003 (ip), vehicle: water.
Setting [3] is: dose: 25.0 mg/kg/injection, schedule: Q04DX003 (ip), vehicle: water.
Where [4] appears, read: dose: 50.0 mg/kg/injection, schedule: Q04DX003 (ip), vehicle: water.

SMILES strings stand for the structures. The list does not hold the whole screen: it gathers some chemical classes. Other doses and runs of a compound may be missing. T/C is the treated group as % of the vehicle group. For survival time, the PubChem record calls one and a half times the control and up active, and a quarter to a half above the control has no call in these data; cut-offs in other NCI protocols can differ. Some T/C values are marked as having no survivor count here; that says nothing about deaths at the dose. Some metal complexes and salts are drawn in pieces, as in the source, so charges may not balance. Schedule codes are those of the source, taken here to give the interval after Q, in days (D) or hours (H), and the number of doses after X. Some entries hold several experiments; the results are listed from low to high.

As for `CN(CCCl)CCCl.O.O.O.[Cl][Ni+][Cl]`, the T/C was 91 % of control [survivor count not shown] (dose: 3.13 mg/kg/injection, schedule: Q01DX009 (ip), vehicle: saline); 96 % of control [survivor count not shown] (dose: 6.25 mg/kg/injection, schedule: Q01DX009 (ip), vehicle: saline); 95 % of control [survivor count not shown] under setting [1]; 104 % of control [survivor count not shown] (dose: 12.5 mg/kg/injection, schedule: Q01DX009 (ip), vehicle: saline); 97 % of control [survivor count not shown] under setting [2]; 111 % of control [survivor count not shown] (dose: 22.0 mg/kg/injection, schedule: Q04DX003 (ip), vehicle: water). The T/C reads like this: (dose: 25.0 mg/kg/injection, schedule: Q01DX009 (ip), vehicle: saline) 112 % of control [survivor count not shown]; under setting [3], 109 % of control [survivor count not shown]; (dose: 33.0 mg/kg/injection, schedule: Q04DX003 (ip), vehicle: water) 120 % of control [survivor count not shown]; under setting [4], 120 [survivor count not shown], 127 [survivor count not shown], 138 % of control [survivor count not shown].
Regarding `CN(CCCl)CCCl.CN(CCCl)CCCl.[Cl][Pt+2][Cl]`, the T/C runs as follows: (dose: 3.13 mg/kg/injection, schedule: Q01DX009 (ip), vehicle: water) 117 % of control [survivor count not shown]; (dose: 6.25 mg/kg/injection, schedule: Q01DX009 (ip), vehicle: water) 124 % of control [survivor count not shown]; under setting [1], 106 % of control [survivor count not shown]; (dose: 12.5 mg/kg/injection, schedule: Q01DX009 (ip), vehicle: water) 130 % of control [survivor count not shown]; under setting [2], 106 % of control [survivor count not shown]; (dose: 25.0 mg/kg/injection, schedule: Q01DX009 (ip), vehicle: water) 130 % of control [survivor count not shown]. Moreover, the T/C reads like this: under setting [3], 128 % of control [survivor count not shown]; under setting [4], 128 [survivor count not shown] and 139 % of control [survivor count not shown].
